Measurements published in US20230192854A1.
These are yes or no findings as the source states them, for the method shown. Binding calls can cover weak binding; strength is not graded here.

Tests used:
[1] = target: cynomolgus BTLA (cynomolgus); test: Fortebio assay as named; BTLA coupled to CM5 biosensor chip, antibody 0.12-90 nM injected (SPR)
[2] = target: cynomolgus BTLA (cynomolgus); test: OD 450 nm against log ng/mL of antibody (ELISA-type readout as drawn; Example 11 describes a Fortebio/SPR chip assay with BTLA coupled to the chip)

binding [1]: binds
binding [2]: binds
B1: humanized anti-BTLA antibody hu17 (antibody, V domains shown)
VH: QVQLVQSGAEVKKPGASVKLSCKASGYNFKHTYAHWVRQAPGQGLEWIGRIDPANGNTKYDPKFQGRATMTADTASNTAYLELSSLRSEDTAVYYCVADHYGSSLLDYWGQGTLVTVSS
VL: DIVMTQTPLSLSVTPGQPASISCKSSQSLLDSDGKTYLNWFQQRPGQSPRRLIYLVSKLDSGVPDRFSGSGSGTDFTLKISRVEAEDVGVYYCWQGTYFPYTFGQGTKLEIK
